At least one structure is not confirmed: it was looked up by name or label, or the drawing left a doubt.
Target: periodontal cyclooxygenase
Assay: Inhibition of cyclooxygenase products (14C arachidonic acid incorporation) in inflamed human gingival tissue homogenate
Assay type: biochemical
Details: for IC50: calculated from percent inhibition at several concentrations; for Activity in controlling periodontal cyclooxygenase compared with ibuprofen: comparison of calculated IC50 with ibuprofen; for % Control: 2 hours at 37° C.
Procedure: Inflamed human gingival tissue was obtained from patients with periodontitis who were undergoing routine periodontal surgery. The tissues were immediately stored in liquid nitrogen prior to use or were used fresh. The assay of cyclooxygenase products was performed as a modification of the assay of El Attar et al., J. Periodon. Res., 21, 169-176 (1986). Pooled tissue was weighed and homogenized at 0°-4° C. with a polytron (Brinkman) homogenizer in a 0.2 M TRIS buffer, pH 8.0, at a final concentration of 20 mg/ml. After centrifugation for 10 minutes at 1200×g, the supernatant was divided into 3 ml aliquots for incubation in the presence or absence of a test compound. The test compounds were tested in triplicate over a log range of 10^-3 to 10^-9 M. The reaction was started by the addition of 0.2 uCi of ^14 C arachidonic acid and carried out for 2 hours at 37° C. The reaction was stopped by the addition of two volumes of ethanol and allowed to remain at room temperature for 30 minutes prior to centrifugation for 10 minutes in order to remove the precipitate. The prostaglandin was then extracted.
Prostanoids were extracted as described by Powell, Methods in Eng., 86, 467 (1982) using a Sep-Pak-C18 cartridge from Walters Associates. The Sep-Pak was prepared by the sequential elusion of 20 milliliters of ethanol and 20 milliliters of water. The sample was then adjusted to 15% ethanol, pH 3.0, with acetic acid and applied to the column. The column was eluted with 20 ml of 15% ethanol, pH 3.0, 20 ml of petroleum ether and then the prostaglandin and Tx (thromboxane) was eluded with 10 ml of methyl formate. Thereafter, the methyl formate was evaporated to dryness with nitrogen and reconstituted in 32% […] (high-pressure liquid chromatography buffer).
These are readily separated and quantified using a 4.6×100 mm RP-18 Spheri-5u column from Brownlee Labs. A Flow-One radioactivity monitor simultaneously measured radioactivity. The elution was monitored at 192 nanometers.
The net incorporation of the ^14 C arachidonate was measured in the absence of the test substance in order to determine the maximal activity of the cyclooxygenase cascade. The percent inhibition for the inhibitors tested was then determined at several concentrations in order to calculate the IC50.

[1] = drug concentration 1 × 10^-4 M, 100 µM
[2] = drug concentration 5 × 10^-7 M, 0.5 µM

Structure (SMILES) | IC50 [µM] | Activity in controlling periodontal cyclooxygenase compared with ibuprofen | % Control [1] [%] | % Control [2] [%] | % Control (drug concentration 5 × 10^-8 M, 0.05 µM) [%] | % Control (drug concentration 1 × 10^-5 M, 10 µM) [%] | % Control (drug concentration 5 × 10^-6 M, 5 µM) [%]
CC/C=C\C/C=C\C/C=C\C/C=C\C/C=C\C/C=C\CCC(=O)O [docosahexaenoic acid] | 10 | more active than ibuprofen | 38.8 | 59.3 | 67.1 | – | –
CC/C=C\C/C=C\C/C=C\C/C=C\C/C=C\CCCC(=O)O [eicosapentaenoic acid] | 15 | same calculated IC50 as ibuprofen | 30.6 | 92.9 | – | 54.1 | 60.1
